Laboratory results from article PMC7819943, “Rice protein-binding microarrays: a tool to detect cis-acting elements near promoter regions in rice”.
Some of the results follow.

target: T1, OsSMF1 (Oryza sativa, UniProt Q6ZLB0 1-436); test: protein-binding microarray (RPBM); PBS, 2% BSA, 51.3 ng/ul salmon testes DNA, 50 uM zinc acetate, 200 nM TF, 25 C, 1 h; high values mean tight binding; conditions: protein: recombinant; tags: N-terminal polyhistidine and DsRed monomer fusion (pET32a); chain copies: 2; label: CyDye5-dUTP incorporated in the synthesized complementary strand; 3' TTTTT single-stranded linker to array surface; dsDNA, one strand shown
T1 sequence: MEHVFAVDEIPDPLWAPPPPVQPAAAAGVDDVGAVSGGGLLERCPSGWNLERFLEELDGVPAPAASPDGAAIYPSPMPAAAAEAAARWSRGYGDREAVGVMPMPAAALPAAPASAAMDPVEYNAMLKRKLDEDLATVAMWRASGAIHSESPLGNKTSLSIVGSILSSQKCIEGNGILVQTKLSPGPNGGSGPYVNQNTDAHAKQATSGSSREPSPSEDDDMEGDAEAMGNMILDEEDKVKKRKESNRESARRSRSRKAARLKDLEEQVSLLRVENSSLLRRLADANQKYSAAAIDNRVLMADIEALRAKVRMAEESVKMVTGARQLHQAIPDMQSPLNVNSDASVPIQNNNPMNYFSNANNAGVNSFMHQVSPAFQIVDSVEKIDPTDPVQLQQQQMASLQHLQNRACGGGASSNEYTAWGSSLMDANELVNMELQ
Summary of the method: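 An Axon 4000B scanner gave the binding signal as per-feature fluorescence intensity in arbitrary units. This followed washing of a custom Agilent array that had been incubated for 1 h at 25 °C with 200 nM protein in PBS, 2% BSA, salmon testes DNA and 50 µM zinc acetate. The proteins were transcription factors fused at the N-terminus to polyhistidine and DsRed, expressed in E. coli BL21-CodonPlus and purified on Ni–NTA.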

Sequence	binding signal
CTCCTGCTGACGCGCCCCGTCGCCGCCGCTCGCTTGCCGCCGGAGTCACCTAGTGCAG	9370 fluorescence intensity (a.u.)
GCTCTCCTCGTCAGCTTCAGGTGGTCGGGTGCTGCCTCCTCGGAGTCACCTAGTGCAG	6060 fluorescence intensity (a.u.)
CCACCTCTCTAGCTTATTTTATGAGAGAGTTCTACACAACCGGAGTCACCTAGTGCAG	21800 fluorescence intensity (a.u.)
ATGCTAACATGGCATACAAACCTTTCCGGGCTCCACATATCGGAGTCACCTAGTGCAG	3200 fluorescence intensity (a.u.)
TAACTTTGGAACAGGCTGATAAGGGTGGATCCTGCGGTTGCGGAGTCACCTAGTGCAG	3440 fluorescence intensity (a.u.)
TGCATTCATGGAGACCGGCGAACACGTCGTCGTGCTGTCGCGGAGTCACCTAGTGCAG	3570 fluorescence intensity (a.u.)
CAAACATCACTAGTTCTCCTCTATTTTGGTAATATTGACGCGGAGTCACCTAGTGCAG	3190 fluorescence intensity (a.u.)
CGATCTCCTCCGAAAATAACGCGAGACCATCCGATCACACCGGAGTCACCTAGTGCAG	23600 fluorescence intensity (a.u.)
TCCTCCTTCCTTCCACCTCACCCCAACCCCAACCCCAACCCGGAGTCACCTAGTGCAG	4080 fluorescence intensity (a.u.)
GGAAAAGCCACATAAGCAATTTCCTTTTCTTGGATCACTCCGGAGTCACCTAGTGCAG	5190 fluorescence intensity (a.u.)
ATGCAGTTTATTCTACTCGCTGGGTACACGTCAGTCAGTGCGGAGTCACCTAGTGCAG	19000 fluorescence intensity (a.u.)
TGCAATTGATTTCACAAACCATGGGAGATGGTGACGTGCACGGAGTCACCTAGTGCAG	9920 fluorescence intensity (a.u.)
GCCCCTGCTCCTACGCTGATGCAGTCAGTCATCACTGGTACGGAGTCACCTAGTGCAG	3390 fluorescence intensity (a.u.)
CAACCCTTCTTGCCTTAATCTACACTCTCATTATATTTAACGGAGTCACCTAGTGCAG	36600 fluorescence intensity (a.u.)
CATGGGAGATTCCAAGCGCCAGACTGACAGATTGACCTTGCGGAGTCACCTAGTGCAG	3230 fluorescence intensity (a.u.)
CGGTGTGCGCGTGGTGGTCTGATTCCGATCTGTACTATGTCGGAGTCACCTAGTGCAG	4240 fluorescence intensity (a.u.)
TCTCCTCTCACCTCGCAATCACATCCTCTTCCCTTCTCTTCGGAGTCACCTAGTGCAG	29200 fluorescence intensity (a.u.)
GTGATCAGTGTTGACCGTTGACTGACACAGAAACGACAACCGGAGTCACCTAGTGCAG	3500 fluorescence intensity (a.u.)
TGTCACGAAAATCTTAATATTCATTTGGAGAAAAGAACGGCGGAGTCACCTAGTGCAG	49000 fluorescence intensity (a.u.)
GTTTCATTTGTTGCCCCTCGAGTCATTATTTGGCGCGGGACGGAGTCACCTAGTGCAG	4030 fluorescence intensity (a.u.)
ATGATATTTTAAGGCAATTTCTATATAGAAAGTTTTCATACGGAGTCACCTAGTGCAG	6600 fluorescence intensity (a.u.)

Sequence	binding signal
ATATATATATATATATATATATATATATATACAGTTCACACGGAGTCACCTAGTGCAG	3240 fluorescence intensity (a.u.)
GATTTGCAGTTGCTTAAGTCGCCCAAGTCATCAATCTTCACGGAGTCACCTAGTGCAG	3850 fluorescence intensity (a.u.)
TCAAAGCGGCGTCACCGGTGAGGTCACGCGCCACCGGCGACGGAGTCACCTAGTGCAG	4200 fluorescence intensity (a.u.)
GCTCGCCGGCCTCACCCTCAATACATGGTGATTCATCCGGCGGAGTCACCTAGTGCAG	3660 fluorescence intensity (a.u.)
CGATTTGGGAGCAACGTTGACGATCCGACTACAACCTTACCGGAGTCACCTAGTGCAG	3810 fluorescence intensity (a.u.)
CAGTGGGGATGTCGATTTCATGGCTGACCTGTCAGGTTGCCGGAGTCACCTAGTGCAG	5280 fluorescence intensity (a.u.)
GCAGGGCCCCGTGATGCCGCTTCTTGATCCAGGAAAGCTGCGGAGTCACCTAGTGCAG	3160 fluorescence intensity (a.u.)
AACTCTCGGCCTTAGCTCCTACCGTCACTCCCACGTGTGCCGGAGTCACCTAGTGCAG	11800 fluorescence intensity (a.u.)
GTGGCCAACCGGGGAAAATCGCGAAAGTAGGTCCCTGTCGCGGAGTCACCTAGTGCAG	3530 fluorescence intensity (a.u.)
TTTCTGCGCTACGTGCTCGCCATGTCGTCCTCGTCACAAACGGAGTCACCTAGTGCAG	5120 fluorescence intensity (a.u.)
TCTCGAGCACAATAGTCCACTGTTTCAGCTTCGATGTCGTCGGAGTCACCTAGTGCAG	35000 fluorescence intensity (a.u.)
CCAGCATCCAAATCCAACTCACTCGAGCGCGAGCTAGCCCCGGAGTCACCTAGTGCAG	3180 fluorescence intensity (a.u.)
TAGACTAGTAGCTGGTGGGCCCCATGACACAGTCACTTGGCGGAGTCACCTAGTGCAG	4760 fluorescence intensity (a.u.)
ACCTCCTCCACCTCCATGGCTCACCACCACGTACAGCAAACGGAGTCACCTAGTGCAG	3360 fluorescence intensity (a.u.)
TTCCTCATTCTTTCCCTGCTGCAGTTCGGCCACGTCTACGCGGAGTCACCTAGTGCAG	5650 fluorescence intensity (a.u.)
TTGCCTGTTCAAATTTTCTTTGTTGTGTCAGACGTATGCTCGGAGTCACCTAGTGCAG	3180 fluorescence intensity (a.u.)
TTCTGGATGCAGCTATCTTCCTACTGAAAGAAATCGGCGCCGGAGTCACCTAGTGCAG	29000 fluorescence intensity (a.u.)
TGTGGACAATGCTAGAAAGTCTTACATTGTCAAACGGATGCGGAGTCACCTAGTGCAG	39500 fluorescence intensity (a.u.)
AGCCACGTAGGTGCCACATCATTTAAAACCGGGCACAATACGGAGTCACCTAGTGCAG	10600 fluorescence intensity (a.u.)
ATTGGTTAGGTCTTTTATGGTGGAATCAGTCCACTTAGGTCGGAGTCACCTAGTGCAG	21000 fluorescence intensity (a.u.)
TTCTAGTGGTGTGTAATTAAGGACCATGTTGCGCAATACACGGAGTCACCTAGTGCAG	4380 fluorescence intensity (a.u.)

A second format for some results above.
TCAAAGCGGCGTCACCGGTGAGGTCACGCGCCACCGGCGACGGAGTCACCTAGTGCAG
  binding signal: 4200 fluorescence intensity (a.u.)
ATTGGTTAGGTCTTTTATGGTGGAATCAGTCCACTTAGGTCGGAGTCACCTAGTGCAG
  binding signal: 21000 fluorescence intensity (a.u.)

Additional results

Sequence	binding signal
CAAATCATGACGCAATTAAGTTTAAAAGATTTGTCTCATACGGAGTCACCTAGTGCAG	3910 fluorescence intensity (a.u.)
CTCGGACGCTGAAATCCATCGTGGAGTTGAGGCCGCCGAACGGAGTCACCTAGTGCAG	3790 fluorescence intensity (a.u.)
GATGGGCCCACCCGTCATCCACACGAGGGCCACGCCTTGCCGGAGTCACCTAGTGCAG	3380 fluorescence intensity (a.u.)
ACCGTGTACACTAACCGATGATGCACAGCATGTACACATGCGGAGTCACCTAGTGCAG	4370 fluorescence intensity (a.u.)
ACCCTGGTAGTGGTAGGCCCCACACCGTCAGCGGCACACGCGGAGTCACCTAGTGCAG	4710 fluorescence intensity (a.u.)
TTGTGTGAGGTCCACGTGAGTCCTACTTCCCACATCAGTTCGGAGTCACCTAGTGCAG	7080 fluorescence intensity (a.u.)
CCGACTGAGTTCCTCGCATCGCGTCACATCGTGTTCATATCGGAGTCACCTAGTGCAG	3650 fluorescence intensity (a.u.)
TCCTCTCCCACGAAAGATCCGCACCAGCTTTGTCAGCTTTCGGAGTCACCTAGTGCAG	3180 fluorescence intensity (a.u.)
CAGATATTATATTACGTAACATCTTCGTCAAGCTTACAATCGGAGTCACCTAGTGCAG	3850 fluorescence intensity (a.u.)
GAATTCGATACCACGTAGCCAAGGTTCTCCTAGCTATCGCCGGAGTCACCTAGTGCAG	3870 fluorescence intensity (a.u.)
GAGGAGGAGAGGACACGTGTACTTACGGTGGCAGAGCCGCCGGAGTCACCTAGTGCAG	18700 fluorescence intensity (a.u.)
CCTGCCTGCCTGCAGAGACTGCTTGAACGGTTTGTCGTTACGGAGTCACCTAGTGCAG	4000 fluorescence intensity (a.u.)
TTCAAATTCAACGTCAACTTTTCCACATGTACAGTTCATGCGGAGTCACCTAGTGCAG	3820 fluorescence intensity (a.u.)
TAGAGCCAGAGCTAGAGCATCACAGAGAAAGAAGAACTTGCGGAGTCACCTAGTGCAG	28200 fluorescence intensity (a.u.)
GACGGGACGGGGCGAGGCGTGTGACAGGCCGCCTGCTGCCCGGAGTCACCTAGTGCAG	26800 fluorescence intensity (a.u.)
AAAATTACCCACCATGCCACCCCACTCCCTCTTTAGACTGCGGAGTCACCTAGTGCAG	4570 fluorescence intensity (a.u.)
GAAGCAGGGATTTGAAACCACTCAAATCCACCACTGCAAACGGAGTCACCTAGTGCAG	3420 fluorescence intensity (a.u.)
ACTGAACGCAATGAACTAATGATGTTTTGCCATCGTATTGCGGAGTCACCTAGTGCAG	3780 fluorescence intensity (a.u.)
AGCATAGGGTATCACTCATGGCGGCCAAATTCCCACCGAACGGAGTCACCTAGTGCAG	3220 fluorescence intensity (a.u.)
CATGCACTGCCAGCACTCCTAATTTCGGATGCTTGTTGTCCGGAGTCACCTAGTGCAG	3560 fluorescence intensity (a.u.)
CACTTCACCCACGTTGAGCTCCACGTCGCCGGCTGCTGCCCGGAGTCACCTAGTGCAG	7910 fluorescence intensity (a.u.)

Sequence	binding signal
AATGACTGCTCCATTCCTGATCTGAATCAGTGGTTCCAACCGGAGTCACCTAGTGCAG	20200 fluorescence intensity (a.u.)
ACCCACCCACCCCTCGACTTTCACATAATTACATCCAGGTCGGAGTCACCTAGTGCAG	30700 fluorescence intensity (a.u.)
TTCGAAGTGGAGTAGAATCACAGTTCACAGAGCTAAGCTACGGAGTCACCTAGTGCAG	17700 fluorescence intensity (a.u.)
ATTTTGTTTTCAATTTTCTGATCATGATCTGGCTGTTTTGCGGAGTCACCTAGTGCAG	3470 fluorescence intensity (a.u.)
CTATTCTCTGCGCCACATCATCGTATGAGTCTACACGGTACGGAGTCACCTAGTGCAG	15200 fluorescence intensity (a.u.)
GGTTGTTCATTTGTGCTACTTGTGACTGTGTTACATCTGTCGGAGTCACCTAGTGCAG	4120 fluorescence intensity (a.u.)
GCCTGAGCTGCCACAGCCATCCACGTAGCTACTTCTACTGCGGAGTCACCTAGTGCAG	5210 fluorescence intensity (a.u.)
TCGTCGATCCCCAATCTGACTCGGGTCTCTCCTTTGGTGTCGGAGTCACCTAGTGCAG	3500 fluorescence intensity (a.u.)
CGGCGCACGAGTCGGCTTCCTCCAGTTTCACACTGCTTCGCGGAGTCACCTAGTGCAG	3480 fluorescence intensity (a.u.)
GTGTATATATAGAGTATACATTATAGTGACTCTGCTTAAGCGGAGTCACCTAGTGCAG	3960 fluorescence intensity (a.u.)
AGCCGGTGCGTGCGTGGGCGCGTGACGCGGGACTCCGGGCCGGAGTCACCTAGTGCAG	3520 fluorescence intensity (a.u.)
TCGCCCGCACGTGGCCCTCCTCTCCTCCCTCCCACCTCGTCGGAGTCACCTAGTGCAG	3380 fluorescence intensity (a.u.)
AGGTCAAGCCACATGTGATCCCCAATATTCCTACTTCCAGCGGAGTCACCTAGTGCAG	3440 fluorescence intensity (a.u.)
ATTCCACGGTTCGTTTCCACCGCGCGCGCCACGGCGAGCTCGGAGTCACCTAGTGCAG	3490 fluorescence intensity (a.u.)
TGAACCCCACATGTCAGCTTTACTACTCCCTTCTTCCCTACGGAGTCACCTAGTGCAG	4350 fluorescence intensity (a.u.)
CTCAAGTTAAAATGATGCGTTGGCACGTAAAAGAACATATCGGAGTCACCTAGTGCAG	4430 fluorescence intensity (a.u.)
CAGCGACAGCGACCACGCCGGTGACATCGACACCAGCAAGCGGAGTCACCTAGTGCAG	5310 fluorescence intensity (a.u.)
GCCAGAGGGACGTGGGTACACGTAGAACCCACGTAGGAGCCGGAGTCACCTAGTGCAG	8730 fluorescence intensity (a.u.)
ATCTGCAGACTGCAGTGCAGGCAAAGCTAGGCAACCACGTCGGAGTCACCTAGTGCAG	3530 fluorescence intensity (a.u.)
TATGCCCACGTTGGACGGAGCGGAGTTTGATTGCCCTATACGGAGTCACCTAGTGCAG	3800 fluorescence intensity (a.u.)
TTTCTTTTCTTCTTTCCTTCTCCCCACGGAGGTGTACGTACGGAGTCACCTAGTGCAG	3440 fluorescence intensity (a.u.)

Part of the list above, comma-delimited:
Sequence,binding signal
TGTGGACAATGCTAGAAAGTCTTACATTGTCAAACGGATGCGGAGTCACCTAGTGCAG,39500 fluorescence intensity (a.u.)
AGCCACGTAGGTGCCACATCATTTAAAACCGGGCACAATACGGAGTCACCTAGTGCAG,10600 fluorescence intensity (a.u.)
ATTGGTTAGGTCTTTTATGGTGGAATCAGTCCACTTAGGTCGGAGTCACCTAGTGCAG,21000 fluorescence intensity (a.u.)
TTCTAGTGGTGTGTAATTAAGGACCATGTTGCGCAATACACGGAGTCACCTAGTGCAG,4380 fluorescence intensity (a.u.)
CAAATCATGACGCAATTAAGTTTAAAAGATTTGTCTCATACGGAGTCACCTAGTGCAG,3910 fluorescence intensity (a.u.)
